# Publication PMC6558757 (JRSM Cardiovascular Disease, 2019)
# Tested on: hiPSC-CMs (iCells)
# Assay: hiPSC-CM assay
# Type: cell-based, human
smiles,measurement,setting,value
Cc1cccc(CCN2CCC(C(=O)c3ccc(NS(C)(=O)=O)cc3)CC2)n1 [E-4031],effect on beating rate and impedance amplitude,"hERG blocker alone at tested concentrations (cisapride 3, 10 and 30 nM)",little effect
same,effect on FPDcF (without pacing) and FPD (paced at 1.2 Hz),"hERG blocker alone, concentrations below EAD-causing concentration",increased
